This passage reports binding results from article PMC11408687.

Experiment [1] deals with T1, GST-MANF fusion protein (UniProt P55145).
T1 sequence: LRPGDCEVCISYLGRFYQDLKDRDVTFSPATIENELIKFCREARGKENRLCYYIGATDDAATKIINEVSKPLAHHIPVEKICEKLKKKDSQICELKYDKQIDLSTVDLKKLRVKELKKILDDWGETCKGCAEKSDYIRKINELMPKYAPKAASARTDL
Nature of the experiment: pull-down; GST-tag fusion protein immobilised on glutathione Sepharose beads, purified His-tag protein added, 4 °C; GST as negative control; Coomassie staining and immunoblotting; both purified. (In general: In western blotting, separated proteins are transferred to a membrane and probed.)

In experiment [2] the target is GST-LRP5-C fusion protein (intracellular domain of LRP5). Described as above.

No constants are given. Whether binding was seen depends on the method and setting. Sequences can lack the tags named with a protein.

As to “His-LRP5-C fusion protein (intracellular domain of LRP5) (domain or fragment)”, in experiment [1], the binding entry is listed as “no binding”.

B1: His-MANF fusion protein (protein, UniProt P55145 25-182)
chain: LRPGDCEVCISYLGRFYQDLKDRDVTFSPATIENELIKFCREARGKENRLCYYIGATDDAATKIINEVSKPLAHHIPVEKICEKLKKKDSQICELKYDKQIDLSTVDLKKLRVKELKKILDDWGETCKGCAEKSDYIRKINELMPKYAPKAASARTDL
As to B1, the binding result in experiment [2] is given as “no binding”.
